From patent US20100255010A1 (Genentech, published 2010)

What was measured:
Test in all cases: direct phage ELISA on a panel of coated proteins, OD450
DR5 = molecular target: DR5
HRG = molecular target: HRG
VEGF = molecular target: VEGF

Measured: binding

B1: DL7, phage-displayed Fab (Fab, V domains shown)
VH: EVQLVESGGGLVQPGGSLRLSCAASGFTLSGDWIHWVRQAPGKGLEWVGEISAAGGYTDYADSVKGRFTISADTSKNTAYLQMNSLRAEDTAVYYCAREARVSYEAAMDYWGQGTLVTVSS
VL: DIQMTQSPSSLSASVGDRVTITCRASQDLATDVAWYQQKPGKAPKLLIYSASFLYSGVPSRFSGSGSGTDFTLTISSLQPEDFATYYCQQSEPEPYTFGQGTKVEIKR
no binding: all assays above

No constants are given. Whether binding was seen depends on the method and setting.
